Measurements published in US20190248889A1 (Genentech, published 2019).
No constants are given. Whether binding was seen depends on the method and setting. Some entries that bind do so weakly or less than the wild type.

Tests used:
[1] = biological target: T1, human LgR5 (human, UniProt O75473 22-907); assay: flow cytometry on xenograft tumor cells (figure legend)
T1 construct: This one molecule is used for transfected 293 cells and for endogenous LgR5 in human cells and tissues; also called leucine-rich repeat-containing G protein-coupled receptor 5
T1 sequence: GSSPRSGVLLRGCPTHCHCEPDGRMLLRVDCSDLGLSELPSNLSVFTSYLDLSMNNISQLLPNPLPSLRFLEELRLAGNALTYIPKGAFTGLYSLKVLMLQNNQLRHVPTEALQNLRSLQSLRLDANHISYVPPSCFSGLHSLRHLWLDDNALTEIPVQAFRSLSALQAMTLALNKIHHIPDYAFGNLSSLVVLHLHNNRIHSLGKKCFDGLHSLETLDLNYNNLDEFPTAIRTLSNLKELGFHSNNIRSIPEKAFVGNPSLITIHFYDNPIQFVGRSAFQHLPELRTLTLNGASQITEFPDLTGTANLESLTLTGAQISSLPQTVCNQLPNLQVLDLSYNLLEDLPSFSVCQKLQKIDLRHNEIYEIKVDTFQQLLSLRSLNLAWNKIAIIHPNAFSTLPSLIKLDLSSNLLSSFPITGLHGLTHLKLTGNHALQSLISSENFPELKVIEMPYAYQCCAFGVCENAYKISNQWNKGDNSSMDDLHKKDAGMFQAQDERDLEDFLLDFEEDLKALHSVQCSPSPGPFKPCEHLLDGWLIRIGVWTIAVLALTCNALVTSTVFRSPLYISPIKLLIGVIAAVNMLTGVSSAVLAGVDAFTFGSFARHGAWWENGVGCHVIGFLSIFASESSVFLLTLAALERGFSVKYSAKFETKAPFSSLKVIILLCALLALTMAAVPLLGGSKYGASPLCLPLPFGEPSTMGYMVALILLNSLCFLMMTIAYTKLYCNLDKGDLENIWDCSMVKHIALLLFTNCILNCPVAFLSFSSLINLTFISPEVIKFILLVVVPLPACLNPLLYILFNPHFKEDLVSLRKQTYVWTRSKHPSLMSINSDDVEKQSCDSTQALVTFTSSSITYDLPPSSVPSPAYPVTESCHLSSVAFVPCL

[2] = biological target: T1, human LgR5; assay: flow cytometry on cells from LoVo X 1.1 and D5124 xenograft tumors
[3] = biological target: T1, human LgR5; assay: flow cytometry on dissociated D5124 xenograft tumor cells, anti-human secondary antibody conjugated to PE
[4] = biological target: T1, human LgR5; assay: flow cytometry on dissociated LoVo X 1.1 xenograft tumor cells, anti-human secondary antibody conjugated to PE

Measured: binding

B1: antibody huYW353 (antibody, human IgG1, kappa, V domains shown)
VH: EVQLVESGGGLVQPGGSLRLSCAASGFTFTSYSISWVRQAPGKGLEWVAEIYPPGGYTDYADSVKGRFTISADTSKNTAYLQMNSLRAEDTAVYYCAKARLFFDYWGQGTLVTVSS
VL: DIQMTQSPSSLSASVGDRVTITCRASQDVSTAVAWYQQKPGKAPKLLIYSASFLYSGVPSRFSGSGSGTDFTLTISSLQPEDFATYYCQQSYTTPPTFGQGTKVEIKR
binds: [1] | [2] | [3] | [4]
